The experiment relates to L1210 leukemia ip in BDF1 mice, survival T/C. Nature of the experiment: NCI In Vivo Anticancer Drug Screen. Data for tumor model L1210 Leukemia (intraperitoneal) in B6D2F1 (BDF1) mice. As to conditions: T/C endpoint: mean survival time, higher T/C = longer survival.
[1] abbreviates: dose: 200.0 mg/kg/injection, schedule: Q01DX009 (ip), vehicle: Klucel (hydroxypropylcellulose) (HPC).
[2] abbreviates: dose: 400.0 mg/kg/injection, schedule: Q01DX009 (ip), vehicle: Klucel (hydroxypropylcellulose) (HPC).
Setting [3] is: dose: 400.0 mg/kg/injection, schedule: Q01DX001 (ip), vehicle: saline.
Where [4] appears, read: dose: 300.0 mg/kg/injection, schedule: Q01DX001 (ip), vehicle: saline.
Setting [5] is: dose: 400.0 mg/kg/injection, schedule: Q01DX009 (ip), vehicle: saline with Tween-80.
Setting [6] is: dose: 400.0 mg/kg/injection, schedule: Q01DX009 (ip), vehicle: saline.
Setting [7] is: dose: 200.0 mg/kg/injection, schedule: Q04DX003 (ip), vehicle: Klucel (hydroxypropylcellulose) (HPC).
[8] abbreviates: dose: 400.0 mg/kg/injection, schedule: Q04DX003 (ip), vehicle: Klucel (hydroxypropylcellulose) (HPC).
[9] abbreviates: dose: 400.0 mg/kg/injection, schedule: Q04DX003 (ip), vehicle: saline with Tween-80.

The list shows only some results of the screen, not a fair sample: it is rich in T/C values a quarter to a half above the control, in often repeated tests (any T/C) and in doses without a T/C. Other doses and runs of a compound stand elsewhere. T/C gives the treated animals as a percentage of the vehicle group. Some doses have a count of surviving animals in place of a T/C: the source files T/C as zero there, which appears to mark a toxic dose or a test without result, not a measured value. Some doses without a T/C left all or most animals alive at the check, yet need not have been tolerated: survival well below the control is almost never listed, so the zero probably covers shortened survival too. Survivors were counted at the toxicity check, usually on the fifth day, unless a day is given; later deaths do not show. Schedule codes are those of the source, taken here to give the interval after Q, in days (D) or hours (H), and the number of doses after X. For survival time, this PubChem deposit counts one and a half times the control or more as active, and values a quarter to a half above the control carry no call in these data; other NCI protocols may use other cut-offs. Some T/C values carry the count of animals alive at the toxicity check (mostly the fifth day); where none is given, no animal had died by that day. Some entries hold several experiments; their values stand side by side, smallest first.

Take `COc1ccc(NC(=O)Oc2ccc(Cl)cc2Cl)c(Cl)c1`: the survivor count is given as 0 of 6 (dose: 50.0 mg/kg/injection, schedule: Q01DX009 (ip), vehicle: Klucel (hydroxypropylcellulose) (HPC)); 5 of 6 (dose: 100.0 mg/kg/injection, schedule: Q01DX009 (ip), vehicle: Klucel (hydroxypropylcellulose) (HPC)); 1 of 6 under setting [1]; 0 of 6 under setting [2].

For the molecule `CC(=O)N(C)c1cc([N+](=O)[O-])ccc1OCc1ccccc1`, the survivor count (dose: 200.0 mg/kg/injection, schedule: Q01DX001 (ip), vehicle: saline) was 3 of 6 and the survivor count under setting [3] is 0 of 6.

Turning to `Cc1cccc(C)c1N(N=O)C(=O)c1ccccc1`, the survivor count under setting [4] was 2 of 6.

As for `CN(C)C1CCCCCCC1`, the survivor count runs as follows: (dose: 150.0 mg/kg/injection, schedule: Q01DX001 (ip), vehicle: acetone) 0 of 6; (dose: 300.0 mg/kg/injection, schedule: Q01DX001 (ip), vehicle: acetone) 0 of 6.

As to `Cn1cc(/C=C/C(N)=O)c2nccnc21`, the survivor count was 0 of 6 (dose: 50.0 mg/kg/injection, schedule: Q01DX009 (ip), vehicle: water); 0 of 6 (dose: 100.0 mg/kg/injection, schedule: Q01DX009 (ip), vehicle: water); 0 of 6 (dose: 200.0 mg/kg/injection, schedule: Q01DX009 (ip), vehicle: water); 0 of 6 (dose: 400.0 mg/kg/injection, schedule: Q01DX009 (ip), vehicle: water).

Regarding `Cc1cc([N+](=O)[O-])ccc1NC(=O)C(Br)C(Br)C(=O)O` (stereo not drawn), the survivor count is, setting by setting: (dose: 200.0 mg/kg/injection, schedule: Q01DX009 (ip), vehicle: other) 3 of 6; (dose: 400.0 mg/kg/injection, schedule: Q01DX009 (ip), vehicle: other) 0 of 6.

Turning to `CC(/C=C/c1ccc(O)cc1)=N\O`, the survivor count under setting [5] was 0 of 6.

Turning to `Cc1ccc(S(=O)(=O)N/N=C(/c2ccccc2)c2cccs2)cc1`, the survivor count under setting [5] is reported as 6 of 6.

Take `COC(=N)c1ccc(Cl)cc1`: under setting [5], the survivor count is listed as 3 of 6.

Consider `CCN(CC)CCC(=O)c1cccs1`, for which the survivor count under setting [6] is 0 of 6.

As for `C[C@@H]1C[C@H]2[C@@H]3CCC4=CC(=O)C=C[C@]4(C)[C@@]3(F)[C@@H](O)C[C@]2(C)[C@@]1(O)C(=O)CO`, the survivor count by setting is: (dose: 75.0 mg/kg/injection, schedule: Q01DX009 (ip), vehicle: saline) 5 of 6; (dose: 115.0 mg/kg/injection, schedule: Q01DX009 (ip), vehicle: saline) 5 of 6; (dose: 150.0 mg/kg/injection, schedule: Q04DX003 (ip), vehicle: saline with Tween-80) 3 of 6; (dose: 170.0 mg/kg/injection, schedule: Q01DX009 (ip), vehicle: saline) 6 of 6; under setting [7], 6 of 6; under setting [8], 5 of 6.

For `CC(C)(C)NC(=O)C(Cl)Cl`, the survivor count (dose: 400.0 mg/kg/injection, schedule: Q01DX001 (ip), vehicle: saline with Tween-80) is reported as 3 of 6.

`O=S(=O)(F)c1cc(Cl)ccc1CBr`: where the note is “dose: 100.0 mg/kg/injection, schedule: Q04DX002 (ip), vehicle: saline with Tween-80”, the survivor count was 3 of 3.

Regarding `CSC(=S)N(C)C`, the survivor count reads like this: under setting [1], 0 of 6; under setting [2], 0 of 6; under setting [8], 2 of 6.

On to `O=C(O)C1C2CCC(O2)C1C(=O)O` (stereo not drawn), for which, under “dose: 400.0 mg/kg/injection, schedule: Q01DX001 (ip), vehicle: carboxymethylcellulose (CMC)”, the survivor count is listed as 1 of 4.

`Nc1[nH]nc2nc(-c3ccc(Cl)cc3)cnc12`: the survivor count under setting [9] was 6 of 6.

In the case of `O=P(Cc1ccccc1)(C(O)c1ccccc1)C(O)c1ccccc1` (stereo not drawn), under setting [8], the survivor count is given as 6 of 6.

For `CC(=O)OCc1ccc[n+](CCc2c[nH]c3ccccc23)c1`, the survivor count under setting [9] was 1 of 6.

Turning to `CN(C)C1(Cc2ccccc2)c2ccccc2-c2ccc(Br)cc21` (stereo not drawn), the survivor count is recorded as 6 of 6 (dose: 50.0 mg/kg/injection, schedule: Q01DX009 (ip), vehicle: saline with Tween-80) and 6 of 6 (dose: 200.0 mg/kg/injection, schedule: Q01DX009 (ip), vehicle: saline with Tween-80).

As for `O=C1OC2CCCCC2OC1=O` (stereo not drawn), the survivor count under setting [3] was 0 of 6.

Take `Cc1cccc(-c2nc3cc(Cl)ccc3c(=O)o2)c1`: under setting [8], the survivor count is 0 of 6.

In the case of `CN(N)P(=S)(c1ccccc1)N(C)N`, the survivor count (dose: 50.0 mg/kg/injection, schedule: Q04DX003 (ip), vehicle: Klucel (hydroxypropylcellulose) (HPC)) was 2 of 6; the survivor count (dose: 100.0 mg/kg/injection, schedule: Q04DX003 (ip), vehicle: Klucel (hydroxypropylcellulose) (HPC)) is reported as 2 of 6; the survivor count under setting [7] is given as 0 of 6; the survivor count under setting [8] was 0 of 6.

As to `CN(C)N=Nc1c[nH]c(=O)[nH]c1=O`, the survivor count was 0 of 6 (dose: 75.0 mg/kg/injection, schedule: Q01DX001 (ip), vehicle: saline); 0 of 6 (dose: 150.0 mg/kg/injection, schedule: Q01DX001 (ip), vehicle: saline); 0 of 6 under setting [4].

On to `CCCCCCCCCCCCCCCCCC(=O)[O][Sn]([CH2]CCC)([CH2]CCC)[O]C(=O)CCCCCCCCCCCCCCCCC`, for which the survivor count reads like this: (dose: 25.0 mg/kg/injection, schedule: Q04DX003 (ip), vehicle: other) 4 of 6; (dose: 100.0 mg/kg/injection, schedule: Q04DX003 (ip), vehicle: other) 1 of 6.

For the molecule `Nc1ccn(C2OC(COC(=O)C34CC5CC(CC(C5)C3)C4)C(O)C2O)c(=O)n1` (stereo not drawn), the T/C (dose: 400.0 mg/kg/injection, schedule: Q01DX001 (ip), vehicle: other) is 134 [7 of 8 alive] and 138 % of control [7 of 8 alive].

As for `NCCc1ccc2c(c1)OCO2`, the survivor count was 2 of 6 (dose: 200.0 mg/kg/injection, schedule: Q01DX009 (ip), vehicle: saline); 0 of 6 under setting [6]; 1 of 6 (dose: 400.0 mg/kg/injection, schedule: Q04DX003 (ip), vehicle: saline).

Regarding `O=C1C(c2ccccc2)=C(c2ccccc2)c2c1c(-c1ccccc1)c(-c1ccccc1)c(-c1ccccc1)c2-c1ccccc1`, the survivor count is, setting by setting: (dose: 50.0 mg/kg/injection, schedule: Q01DX001 (ip), vehicle: saline with Tween-80) 3 of 3; (dose: 100.0 mg/kg/injection, schedule: Q01DX001 (ip), vehicle: saline with Tween-80) 3 of 3.

On to `CCN(CC)CCNc1ccc(CO)c(Cl)c1`, for which the survivor count (dose: 250.0 mg/kg/injection, schedule: Q01DX009 (ip), vehicle: Klucel (hydroxypropylcellulose) (HPC)) is recorded as 0 of 6.

Consider `NC(CCl)=NCCCCN=C(N)CCl`, for which the survivor count reads like this: (dose: 50.0 mg/kg/injection, schedule: Q01DX009 (ip), vehicle: saline) 0 of 3; (dose: 50.0 mg/kg/injection, schedule: Q04DX002 (ip), vehicle: saline) 1 of 3; (dose: 100.0 mg/kg/injection, schedule: Q04DX002 (ip), vehicle: saline) 0 of 3; (dose: 200.0 mg/kg/injection, schedule: Q04DX002 (ip), vehicle: saline) 0 of 3; (dose: 400.0 mg/kg/injection, schedule: Q04DX002 (ip), vehicle: saline) 0 of 3.

As for `C[CH2][Ge]1([CH2]C)[CH2]C(C)=C(C)[CH2]1`, the survivor count (dose: 400.0 mg/kg/injection, schedule: Q04DX002 (ip), vehicle: saline with Tween-80) is 0 of 3.

For the molecule `O=C(NCCCl)NC1CCSc2ccccc21` (stereo not drawn), the survivor count under setting [9] is reported as 5 of 6.

Take `C1=C2CN3CCC45c6ccccc6N6CCC(OC1)C(C2CC34)C65` (stereo not drawn): the survivor count was 3 of 6 (dose: 2.5 mg/kg/injection, schedule: Q01DX001 (ip), vehicle: other) and 0 of 6 (dose: 5.0 mg/kg/injection, schedule: Q01DX001 (ip), vehicle: other).

The values above are taken from PubChem BioAssay AID248 (DTP/NCI, 2004).
